Measured values from patent US20100267626A1, “METHODS AND COMPOSITIONS FOR MEASURING WNT ACTIVATION AND FOR TREATING WNT-RELATED CANCERS” (Novartis AG, priority 2007, published 2010).
Results are given in words; binding and its absence hold for the method and conditions named. For part of these data: In cells and extracts the contact can be indirect. Some results given as binding are weak or reduced against the parent protein; the word gives no strength.

Amino acid sequences for entries named in this document (tags omitted). A change or cut given only in a name is not applied to a line headed by its entry.
UniProt Q9Y2T1: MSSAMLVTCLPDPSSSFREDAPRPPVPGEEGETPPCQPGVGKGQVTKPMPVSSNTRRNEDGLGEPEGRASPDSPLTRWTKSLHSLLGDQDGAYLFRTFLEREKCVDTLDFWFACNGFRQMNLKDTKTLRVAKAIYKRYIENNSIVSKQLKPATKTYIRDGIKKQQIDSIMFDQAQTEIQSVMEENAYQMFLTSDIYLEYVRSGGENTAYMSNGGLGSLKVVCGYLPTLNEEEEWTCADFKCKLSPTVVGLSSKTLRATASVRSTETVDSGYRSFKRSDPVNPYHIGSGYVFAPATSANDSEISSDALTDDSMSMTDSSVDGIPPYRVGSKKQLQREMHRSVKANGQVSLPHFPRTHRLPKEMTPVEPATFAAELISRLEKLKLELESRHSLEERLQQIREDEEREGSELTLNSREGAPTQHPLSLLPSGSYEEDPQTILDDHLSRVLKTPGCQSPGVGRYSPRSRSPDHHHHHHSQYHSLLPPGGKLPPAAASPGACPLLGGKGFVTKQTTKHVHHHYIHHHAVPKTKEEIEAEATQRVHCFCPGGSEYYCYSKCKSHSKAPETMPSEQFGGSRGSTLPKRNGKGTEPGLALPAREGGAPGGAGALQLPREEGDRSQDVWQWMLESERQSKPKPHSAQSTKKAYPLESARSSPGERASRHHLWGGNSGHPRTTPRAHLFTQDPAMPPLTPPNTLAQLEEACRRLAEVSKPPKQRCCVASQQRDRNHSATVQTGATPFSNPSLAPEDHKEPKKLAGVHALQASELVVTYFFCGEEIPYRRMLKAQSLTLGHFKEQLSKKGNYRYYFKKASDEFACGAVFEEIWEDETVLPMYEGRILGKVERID
UniProt O95271: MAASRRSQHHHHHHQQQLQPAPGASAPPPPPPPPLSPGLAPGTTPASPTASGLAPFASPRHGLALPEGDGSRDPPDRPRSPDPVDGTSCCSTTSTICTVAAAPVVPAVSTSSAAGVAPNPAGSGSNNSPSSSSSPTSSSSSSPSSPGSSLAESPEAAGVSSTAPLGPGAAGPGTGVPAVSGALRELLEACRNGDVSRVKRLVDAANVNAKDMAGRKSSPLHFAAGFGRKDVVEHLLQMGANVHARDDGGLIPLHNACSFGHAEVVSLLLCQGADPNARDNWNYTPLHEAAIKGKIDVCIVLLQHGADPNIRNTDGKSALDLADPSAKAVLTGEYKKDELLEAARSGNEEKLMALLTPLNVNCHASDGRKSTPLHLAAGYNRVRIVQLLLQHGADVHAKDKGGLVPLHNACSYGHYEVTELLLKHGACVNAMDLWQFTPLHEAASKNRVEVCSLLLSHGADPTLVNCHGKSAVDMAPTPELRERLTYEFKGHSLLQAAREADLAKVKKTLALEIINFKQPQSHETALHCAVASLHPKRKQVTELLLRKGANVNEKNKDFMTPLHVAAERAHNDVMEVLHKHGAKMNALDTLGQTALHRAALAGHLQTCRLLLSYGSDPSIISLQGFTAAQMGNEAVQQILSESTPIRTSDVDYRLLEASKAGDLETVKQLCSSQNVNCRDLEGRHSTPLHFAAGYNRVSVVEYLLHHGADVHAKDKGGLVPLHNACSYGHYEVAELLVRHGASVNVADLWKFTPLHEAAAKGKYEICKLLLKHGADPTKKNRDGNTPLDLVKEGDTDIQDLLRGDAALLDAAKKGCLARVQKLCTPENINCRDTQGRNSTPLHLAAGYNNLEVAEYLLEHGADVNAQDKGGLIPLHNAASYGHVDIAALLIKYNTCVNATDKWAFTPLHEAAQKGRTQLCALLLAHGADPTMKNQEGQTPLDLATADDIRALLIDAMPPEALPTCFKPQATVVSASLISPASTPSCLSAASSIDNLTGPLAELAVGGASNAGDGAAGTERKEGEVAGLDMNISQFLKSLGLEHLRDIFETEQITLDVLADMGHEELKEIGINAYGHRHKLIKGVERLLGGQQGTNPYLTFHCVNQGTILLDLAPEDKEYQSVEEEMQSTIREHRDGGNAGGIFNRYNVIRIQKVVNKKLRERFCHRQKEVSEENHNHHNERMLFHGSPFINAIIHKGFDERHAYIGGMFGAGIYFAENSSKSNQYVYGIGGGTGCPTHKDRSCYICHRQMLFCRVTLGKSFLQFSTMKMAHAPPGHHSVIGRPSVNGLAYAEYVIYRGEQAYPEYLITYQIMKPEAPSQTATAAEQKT
UniProt O35625: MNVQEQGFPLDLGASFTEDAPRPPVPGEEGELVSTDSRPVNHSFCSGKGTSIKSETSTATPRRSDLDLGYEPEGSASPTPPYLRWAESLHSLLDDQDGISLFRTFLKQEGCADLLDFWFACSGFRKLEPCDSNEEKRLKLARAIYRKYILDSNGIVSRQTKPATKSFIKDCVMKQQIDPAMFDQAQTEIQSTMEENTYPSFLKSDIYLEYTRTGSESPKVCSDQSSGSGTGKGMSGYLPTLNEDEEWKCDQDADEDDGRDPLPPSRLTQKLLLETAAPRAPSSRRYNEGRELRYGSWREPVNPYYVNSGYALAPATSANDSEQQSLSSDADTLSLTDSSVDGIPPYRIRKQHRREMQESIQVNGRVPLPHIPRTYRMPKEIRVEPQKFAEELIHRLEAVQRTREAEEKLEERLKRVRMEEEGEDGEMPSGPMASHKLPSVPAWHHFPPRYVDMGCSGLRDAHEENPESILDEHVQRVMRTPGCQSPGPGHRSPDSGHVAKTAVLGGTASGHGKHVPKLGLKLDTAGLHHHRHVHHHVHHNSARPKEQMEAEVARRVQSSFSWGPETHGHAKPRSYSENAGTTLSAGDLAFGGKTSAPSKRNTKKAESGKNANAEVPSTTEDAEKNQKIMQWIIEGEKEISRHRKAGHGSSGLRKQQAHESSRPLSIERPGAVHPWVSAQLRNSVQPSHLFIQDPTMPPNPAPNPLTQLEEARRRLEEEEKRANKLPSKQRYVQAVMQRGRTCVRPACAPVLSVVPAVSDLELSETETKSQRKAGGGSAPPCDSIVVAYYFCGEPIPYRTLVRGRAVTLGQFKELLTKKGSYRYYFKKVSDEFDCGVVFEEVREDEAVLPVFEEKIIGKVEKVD

Tests used:
[1] = target: Axin2, endogenous protein in SW480 cells (human) (UniProt Q9Y2T1); test: co-immunoprecipitation of endogenous proteins from SW480 lysate
[2] = target: Axin2, endogenous protein in SW480 cells (human) (UniProt Q9Y2T1); test: co-immunoprecipitation with anti-Axin2 antibody from SW480 lysate, immunoblot
[3] = target: TNKS1 (human), yeast two-hybrid prey in pGAD-T7 (human) (UniProt O95271); test: yeast two-hybrid with Axin1 fragments

Row | binding [1] | binding [2] | binding [3] | Binder
1 | binds | binds |  | TNKS2 (Tankyrase 2), endogenous protein in SW480 cells (enzyme, human, UniProt Q9H2K2 1-1166, looked up) MSGRRCAGGGAACASAAAEAVEPAARELFEACRNGDVERVKRLVTPEKVNSRDTAGRKSTPLHFAAGFGRKDVVEYLLQNGANVQARDDGGLIPLHNACSFGHAEVVNLLLRHGADPNARDNWNYTPLHEAAIKGKIDVCIVLLQHGAEPTIRNTDGRTALDLADPSAKAVLTGEYKKDELLESARSGNEEKMMALLTPLNVNCHASDGRKSTPLHLAAGYNRVKIVQLLLQHGADVHAKDKGDLVPLHNACSYGHYEVTELLVKHGACVNAMDLWQFTPLHEAASKNRVEVCSLLLSYGADPTLLNCHNKSAIDLAPTPQLKERLAYEFKGHSLLQAAREADVTRIKKHLSLEMVNFKHPQTHETALHCAAASPYPKRKQICELLLRKGANINEKTKEFLTPLHVASEKAHNDVVEVVVKHEAKVNALDNLGQTSLHRAAYCGHLQTCRLLLSYGCDPNIISLQGFTALQMGNENVQQLLQEGISLGNSEADRQLLEAAKAGDVETVKKLCTVQSVNCRDIEGRQSTPLHFAAGYNRVSVVEYLLQHGADVHAKDKGGLVPLHNACSYGHYEVAELLVKHGAVVNVADLWKFTPLHEAAAKGKYEICKLLLQHGADPTKKNRDGNTPLDLVKDGDTDIQDLLRGDAALLDAAKKGCLARVKKLSSPDNVNCRDTQGRHSTPLHLAAGYNNLEVAEYLLQHGADVNAQDKGGLIPLHNAASYGHVDVAALLIKYNACVNATDKWAFTPLHEAAQKGRTQLCALLLAHGADPTLKNQEGQTPLDLVSADDVSALLTAAMPPSALPSCYKPQVLNGVRSPGATADALSSGPSSPSSLSAASSLDNLSGSFSELSSVVSSSGTEGASSLEKKEVPGVDFSITQFVRNLGLEHLMDIFEREQITLDVLVEMGHKELKEIGINAYGHRHKLIKGVERLISGQQGLNPYLTLNTSGSGTILIDLSPDDKEFQSVEEEMQSTVREHRDGGHAGGIFNRYNILKIQKVCNKKLWERYTHRRKEVSEENHNHANERMLFHGSPFVNAIIHKGFDERHAYIGGMFGAGIYFAENSSKSNQYVYGIGGGTGCPVHKDRSCYICHRQLLFCRVTLGKSFLQFSAMKMAHSPPGHHSVTGRPSVNGLALAEYVIYRGEQAYPEYLITYQIMRPEGMVDG
2 |  |  | binds | DAPRPPVPGEEG (peptide, UniProt O35625 19-30, looked up, not shown: large carriers) [Axin1 N-terminal region amino acid 19-30 (TBD, Tankyrase-Binding Domain), yeast two-hybrid fragment]
